This note sets out measurements from the supplement of paper PMC10735217.

The assay concerns HEK293A TEAD-LUC reporter. The assay can be described thus: TEAD-luciferase reporter activity (YAP activation), robust Z score vs plate; higher = stronger YAP/TEAD activation. The settings on record: 24 h. Background: Reporter assays use an easily measured gene product as a stand-in for the process of interest.

Molecules are shown by their SMILES. Counter-ions that a name gives are not always drawn. The list shows a part of the results. Single values are uncertain here, since repeats match poorly.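 Human kidney-derived cells stably carry a construct in which eight TEAD-binding elements drive luciferase, measured by luminescence in a drug-repurposing library screen. A hit is any compound whose signal exceeds the plate mean by more than five robust Z scores.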

For the molecule `Cc1nc2[nH]c(=O)sc2cc1-c1ccncc1`, the TEAD-luciferase reporter activity is inactive: 0.16 (compound concentration: 200 nM), inactive: -0.597 (compound concentration: 2 uM) and inactive: -1.55 (compound concentration: 10 uM).

On to `O=C(NCCCN1CCOCC1)c1ccc(Cl)cc1` [Eprobemide], for which the TEAD-luciferase reporter activity runs as follows: (compound concentration: 200 nM) inactive: -1.19; (compound concentration: 2 uM) inactive: 2.13; (compound concentration: 10 uM) inactive: 1.59.

For the molecule `CCOC(=O)C1=CCCC[C@H]1S(=O)(=O)Nc1ccc(F)cc1Cl` [Resatorvid], the TEAD-luciferase reporter activity runs as follows: (compound concentration: 200 nM) inactive: 0.714; (compound concentration: 2 uM) inactive: -0.0449; (compound concentration: 10 uM) inactive: 0.672.

Take `N[C@H]1CC[C@H](Nc2nc(NCc3cccc(I)c3)c3ncn(C4CCCC4)c3n2)CC1`: the TEAD-luciferase reporter activity by setting is: (compound concentration: 200 nM) inactive: -0.676; (compound concentration: 2 uM) inactive: 4.46; (compound concentration: 10 uM) inactive: 2.99.

Consider `COc1cc(Nc2ncc(F)c(Nc3ccc4c(n3)NC(=O)C(C)(C)O4)n2)cc(OC)c1OC` [Tamatinib besilate], for which the TEAD-luciferase reporter activity (compound concentration: 2 uM) is inactive: -2.69.

On to `COc1cc(Nc2ncc(F)c(Nc3ccc4c(n3)NC(=O)C(C)(C)O4)n2)cc(OC)c1OC`, for which the TEAD-luciferase reporter activity was inactive: 2.53 (compound concentration: 200 nM) and inactive: -3.29 (compound concentration: 10 uM).

As for `Cn1nc(-c2cnc3ccccc3c2)cc1C(=O)NCCN1CCOCC1`, the TEAD-luciferase reporter activity runs as follows: (compound concentration: 200 nM) inactive: -0.832; (compound concentration: 2 uM) inactive: -0.325; (compound concentration: 10 uM) inactive: 1.05.

For the molecule `CCOC(=O)C(=O)Nc1cccc(OC)c1C(N)=O`, the TEAD-luciferase reporter activity is inactive: -0.331 (compound concentration: 200 nM), inactive: -0.415 (compound concentration: 2 uM) and inactive: -0.355 (compound concentration: 10 uM).

For the molecule `O=C1c2ccccc2C(=O)C1c1ccc(Br)cc1`, the TEAD-luciferase reporter activity (compound concentration: 200 nM) is inactive: -0.716, the TEAD-luciferase reporter activity (compound concentration: 2 uM) is inactive: 0.977 and the TEAD-luciferase reporter activity (compound concentration: 10 uM) was inactive: 3.02.

As for `COc1cc(OC)c(-c2cc3ccccc3[nH]2)cc1/C=C/C(=O)c1ccc(C(=O)O)cc1` [VCAM-1 antagonists], the TEAD-luciferase reporter activity (compound concentration: 2 uM) is inactive: 1.25.

As to `COc1cc(OC)c(-c2cc3ccccc3[nH]2)cc1/C=C/C(=O)c1ccc(C(=O)O)cc1` [VCAM-1 antagonists, AtheroGen], the TEAD-luciferase reporter activity was inactive: 4.17 (compound concentration: 200 nM) and inactive: 0.474 (compound concentration: 10 uM).

In the case of `CC1(C)Oc2ccc(C#N)cc2[C@H](N(Cc2ncc[nH]2)c2ccc(Cl)cc2)[C@H]1O`, the TEAD-luciferase reporter activity was inactive: -0.263 (compound concentration: 200 nM), inactive: 2.06 (compound concentration: 2 uM) and inactive: -0.195 (compound concentration: 10 uM).

Regarding `CN(CC(O)C(O)C(O)C(O)CO)C(=S)[S-]` (stereo unspecified), the TEAD-luciferase reporter activity was inactive: -0.553 (compound concentration: 200 nM), inactive: -0.807 (compound concentration: 2 uM) and inactive: 1.11 (compound concentration: 10 uM).

Regarding `Cc1cc(-c2nnc(N)nc2-c2ccc(F)cc2)cc(Cl)n1`, the TEAD-luciferase reporter activity is, setting by setting: (compound concentration: 200 nM) active: 7.89; (compound concentration: 2 uM) inactive: -1.22; (compound concentration: 10 uM) inactive: 0.766.

Regarding `C#CCNC(=O)[C@H]1N(C(=O)[C@@H](O)[C@H](Cc2ccccc2)NC(=O)c2cccc(O)c2C)CSC1(C)C`, the TEAD-luciferase reporter activity is, setting by setting: (compound concentration: 200 nM) inactive: -0.116; (compound concentration: 2 uM) inactive: -0.4; (compound concentration: 10 uM) inactive: 0.461.

With `Cc1nc2cccc(C(F)(F)F)c2c(=O)n1-c1ccc(OC2CCN(C3CCC3)CC2)cc1`, the TEAD-luciferase reporter activity (compound concentration: 200 nM) was inactive: -1.74, the TEAD-luciferase reporter activity (compound concentration: 2 uM) was inactive: 0.528 and the TEAD-luciferase reporter activity (compound concentration: 10 uM) is inactive: 0.0504.

On to `CNC[C@@H]1CCn2cc(c3ccccc32)C2=C(C(=O)NC2=O)c2cn(c3ccccc23)CCO1`, for which the TEAD-luciferase reporter activity (compound concentration: 200 nM) was inactive: 0.458, the TEAD-luciferase reporter activity (compound concentration: 2 uM) was inactive: 0.632 and the TEAD-luciferase reporter activity (compound concentration: 10 uM) is inactive: -0.672.

With `Cc1oc(-c2ccccc2)nc1COc1ccc(CO/N=C(\CCC(=O)O)c2ccccc2)cc1`, the TEAD-luciferase reporter activity was inactive: -0.431 (compound concentration: 200 nM), inactive: -0.631 (compound concentration: 2 uM) and inactive: 2.82 (compound concentration: 10 uM).

Turning to `Cc1cn([C@H]2O[C@@H](CO)[C@H](O)[C@H]2F)c(=O)[nH]c1=O`, the TEAD-luciferase reporter activity by setting is: (compound concentration: 200 nM) inactive: -0.297; (compound concentration: 2 uM) inactive: 0.986; (compound concentration: 10 uM) inactive: 2.19.

Consider `CCCNC(=O)N1N=C(c2ccc(N)cc2)c2cc3c(cc2C1C)OCO3` (stereo unspecified), for which the TEAD-luciferase reporter activity runs as follows: (compound concentration: 200 nM) inactive: -0.953; (compound concentration: 2 uM) inactive: -1.21; (compound concentration: 10 uM) inactive: -0.479.

With `CCOc1nc2cccc(C(=O)OCc3oc(=O)oc3C)c2n1Cc1ccc(-c2ccccc2-c2nc(=O)o[nH]2)cc1` [Azilsartan medoxomil potassium], the TEAD-luciferase reporter activity is, setting by setting: (compound concentration: 200 nM) inactive: -0.704; (compound concentration: 2 uM) inactive: 0.501; (compound concentration: 10 uM) inactive: 2.

`Cc1ccn(-c2ccc(C(=O)N3Cc4cccnc4Nc4ccccc43)c(C(F)(F)F)c2)n1`: the TEAD-luciferase reporter activity is inactive: 2.39 (compound concentration: 200 nM), inactive: -1.1 (compound concentration: 2 uM) and inactive: -1.37 (compound concentration: 10 uM).

Take `CCN1C(=O)c2ccccc2C1C(CCN1CCC(c2ccccc2S(C)=O)CC1)c1ccc(Cl)c(Cl)c1` (stereo unspecified): the TEAD-luciferase reporter activity was inactive: -1.18 (compound concentration: 200 nM), inactive: -0.309 (compound concentration: 2 uM) and inactive: 0.348 (compound concentration: 10 uM).

Turning to `Cc1ccc(C(=O)N2CCC(C(=O)N3CCC(N4CCCC4=O)CC3)CC2)cc1`, the TEAD-luciferase reporter activity (compound concentration: 200 nM) was inactive: -0.185 and the TEAD-luciferase reporter activity (compound concentration: 10 uM) is inactive: -0.297.

For the molecule `CCC(C)(C)/N=C(/NC#N)N[C@@H]1c2cc(C#N)ccc2OC(C)(C)[C@H]1O`, the TEAD-luciferase reporter activity (compound concentration: 200 nM) is inactive: -0.475, the TEAD-luciferase reporter activity (compound concentration: 2 uM) was inactive: -1.1 and the TEAD-luciferase reporter activity (compound concentration: 10 uM) is inactive: 1.59.

With `COC(=O)N[C@H](C(=O)N1CCC[C@H]1c1ncc(-c2cc(F)c3c(c2)O[C@@H](c2cnc(C4CC4)s2)n2c-3cc3cc(-c4cnc([C@@H]5CCCN5C(=O)[C@@H](NC(=O)OC)C(C)C)[nH]4)ccc32)[nH]1)C(C)C`, the TEAD-luciferase reporter activity reads like this: (compound concentration: 200 nM) inactive: 0.255; (compound concentration: 2 uM) inactive: 0.413; (compound concentration: 10 uM) inactive: -0.0788.

For `CCOc1cc2nc(N3CCOCC3)nc(N3CCC(n4c(=O)c5cc(C)ccc5n(C)c4=O)CC3)c2cc1OCC`, the TEAD-luciferase reporter activity was inactive: -0.168 (compound concentration: 200 nM), inactive: -1.01 (compound concentration: 2 uM) and inactive: 2.98 (compound concentration: 10 uM).

In the case of `O=C1N[C@H](C(=O)O)CS1` [4-Thiazolidinecarboxylic acid, 2-oxo-, (R)-], the TEAD-luciferase reporter activity (compound concentration: 200 nM) was inactive: -0.613 and the TEAD-luciferase reporter activity (compound concentration: 10 uM) is inactive: -0.223.

On to `O=C1N[C@H](C(=O)O)CS1` [Procysteine], for which the TEAD-luciferase reporter activity (compound concentration: 2 uM) is inactive: 0.694.

Take `CC(C)(C)C(=O)NC1CCN(c2nc3ncccc3o2)C1` (stereo unspecified): the TEAD-luciferase reporter activity runs as follows: (compound concentration: 200 nM) inactive: -1.17; (compound concentration: 10 uM) inactive: -0.659.

In the case of `Cc1[nH]cnc1CN1CCc2c(c3ccccc3n2C)C1=O` [alosetron], the TEAD-luciferase reporter activity (compound concentration: 2 uM) was inactive: -0.458.

In the case of `Cc1[nH]cnc1CN1CCc2c(c3ccccc3n2C)C1=O` [Alosetron HCl], the TEAD-luciferase reporter activity by setting is: (compound concentration: 200 nM) inactive: -1.14; (compound concentration: 10 uM) inactive: -1.08.

Take `N=C(N)c1ccc2[nH]c(-c3cc(CC(=O)N[C@@H](CC(=O)O)C(=O)O)cc(-c4cc(S(N)(=O)=O)ccc4O)c3O)nc2c1`: the TEAD-luciferase reporter activity runs as follows: (compound concentration: 200 nM) inactive: -0.924; (compound concentration: 2 uM) inactive: 0.363; (compound concentration: 10 uM) inactive: -1.24.

Turning to `C=CCn1c(=O)c(C(=O)Nc2cccc(C)c2C)c(O)c2ccccc21`, the TEAD-luciferase reporter activity is, setting by setting: (compound concentration: 200 nM) inactive: -0.734; (compound concentration: 2 uM) inactive: 3.57; (compound concentration: 10 uM) inactive: 1.62.

Consider `O=C(O)CCCCCCCCCCCCCCCCI`, for which the TEAD-luciferase reporter activity reads like this: (compound concentration: 200 nM) inactive: 0.945; (compound concentration: 2 uM) inactive: -0.296; (compound concentration: 10 uM) inactive: -1.84.
